These are yes or no findings as the source states them, for the method shown. Binding seen in cells or lysates may run through a third protein. Tags and fused reporters may be left off the sequences shown.
Target: T1, DRB2-Cmyc (Arabidopsis thaliana) (UniProt Q9SKN2)
T1 sequence: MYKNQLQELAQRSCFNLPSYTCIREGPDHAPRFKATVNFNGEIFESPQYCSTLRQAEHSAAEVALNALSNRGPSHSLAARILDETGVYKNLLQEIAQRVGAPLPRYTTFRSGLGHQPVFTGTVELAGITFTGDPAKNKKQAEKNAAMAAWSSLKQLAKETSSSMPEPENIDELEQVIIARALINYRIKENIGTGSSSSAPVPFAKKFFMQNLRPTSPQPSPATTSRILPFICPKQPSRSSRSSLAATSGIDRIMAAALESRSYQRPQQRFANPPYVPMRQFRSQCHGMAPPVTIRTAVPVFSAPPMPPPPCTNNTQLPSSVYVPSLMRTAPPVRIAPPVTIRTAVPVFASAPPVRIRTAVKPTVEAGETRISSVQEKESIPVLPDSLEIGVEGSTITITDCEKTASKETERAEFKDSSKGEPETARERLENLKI
Assay: co-IP; Cmyc and Flag IPs from first generation plants of DRB2-Cmyc crossed with NRPD1-Flag or NRPE1-Flag; western blot

binding: no binding
B1: NRPD1-Flag (protein, UniProt Q9LQ02 1-1453)
chain: MEDDCEELQVPVGTLTSIGFSISNNNDRDKMSVLEVEAPNQVTDSRLGLPNPDSVCRTCGSKDRKVCEGHFGVINFAYSIINPYFLKEVAALLNKICPGCKYIRKKQFQITEDQPERCRYCTLNTGYPLMKFRVTTKEVFRRSGIVVEVNEESLMKLKKRGVLTLPPDYWSFLPQDSNIDESCLKPTRRIITHAQVYALLLGIDQRLIKKDIPMFNSLGLTSFPVTPNGYRVTEIVHQFNGARLIFDERTRIYKKLVGFEGNTLELSSRVMECMQYSRLFSETVSSSKDSANPYQKKSDTPKLCGLRFMKDVLLGKRSDHTFRTVVVGDPSLKLNEIGIPESIAKRLQVSEHLNQCNKERLVTSFVPTLLDNKEMHVRRGDRLVAIQVNDLQTGDKIFRSLMDGDTVLMNRPPSIHQHSLIAMTVRILPTTSVVSLNPICCLPFRGDFDGDCLHGYVPQSIQAKVELDELVALDKQLINRQNGRNLLSLGQDSLTAAYLVNVEKNCYLNRAQMQQLQMYCPFQLPPPAIIKASPSSTEPQWTGMQLFGMLFPPGFDYTYPLNNVVVSNGELLSFSEGSAWLRDGEGNFIERLLKHDKGKVLDIIYSAQEMLSQWLLMRGLSVSLADLYLSSDLQSRKNLTEEISYGLREAEQVCNKQQLMVESWRDFLAVNGEDKEEDSVSDLARFCYERQKSATLSELAVSAFKDAYRDVQALAYRYGDQSNSFLIMSKAGSKGNIGKLVQHSMCIGLQNSAVSLSFGFPRELTCAAWNDPNSPLRGAKGKDSTTTESYVPYGVIENSFLTGLNPLESFVHSVTSRDSSFSGNADLPGTLSRRLMFFMRDIYAAYDGTVRNSFGNQLVQFTYETDGPVEDITGEALGSLSACALSEAAYSALDQPISLLETSPLLNLKNVLECGSKKGQREQTMSLYLSEYLSKKKHGFEYGSLEIKNHLEKLSFSEIVSTSMIIFSPSSNTKVPLSPWVCHFHISEKVLKRKQLSAESVVSSLNEQYKSRNRELKLDIVDLDIQNTNHCSSDDQAMKDDNVCITVTVVEASKHSVLELDAIRLVLIPFLLDSPVKGDQGIKKVNILWTDRPKAPKRNGNHLAGELYLKVTMYGDRGKRNCWTALLETCLPIMDMIDWGRSHPDNIRQCCSVYGIDAGRSIFVANLESAVSDTGKEILREHLLLVADSLSVTGEFVALNAKGWSKQRQVESTPAPFTQACFSSPSQCFLKAAKEGVRDDLQGSIDALAWGKVPGFGTGDQFEIIISPKVHGFTTPVDVYDLLSSTKTMRRTNSAPKSDKATVQPFGLLHSAFLKDIKVLDGKGIPMSLLRTIFTWKNIELLSQSLKRILHSYEINELLNERDEGLVKMVLQLHPNSVEKIGPGVKGIRVAKSKHGDSCCFEVVRIDGTFEDFSYHKCVLGATKIIAPKKMNFYKSKYLKNGTLESGGFSENP

Reference: PMC4351826
